Some results were stated once for a whole list of compounds, not compound by compound. For at least one compound, name, drawing or mass did not settle the structure.
What was measured:
Amaranthus retroflexus = test: Greenhouse post-emergence herbicidal activity against AMARE; type: in vivo; settings: application rate 0.25 kg/ha, scale 0 to 100
Solanum nigrum = test: Greenhouse post-emergence herbicidal activity against SOLNI; type: in vivo; settings: application rate 0.25 kg/ha, scale 0 to 100

O=S1(=O)C(c2cc(Cl)cc(N3CCOCC3)c2C(F)(F)F)=C(O)c2nccnc2N1CC(F)F [I-12, 3-[5-chloro-3-morpholino-2-(trifluoromethyl)phenyl]-1-(2,2-difluoroethyl)-2,2-dioxo-pyrazino[2,3-c]thiazin-4-ol]
herbicidal activity against AMARE (Amaranthus retroflexus): very good (a very good herbicidal activity is given at values of at least 85) | herbicidal activity against SOLNI (Solanum nigrum): very good (a very good herbicidal activity is given at values of at least 85)

Reference: patent publication US8575068B2, “Pyrazinothiazines having herbicidal action” (BASF SE, priority 2010, dated 2013)
